Laboratory results: the supplement of paper PMC10849652
Some of the results follow.

Chains of the proteins cited; added tags and fusions are not shown. Lines headed by an entry give the natural chain unless they say otherwise; changes in a name come on top.
UniProt Q96GX5: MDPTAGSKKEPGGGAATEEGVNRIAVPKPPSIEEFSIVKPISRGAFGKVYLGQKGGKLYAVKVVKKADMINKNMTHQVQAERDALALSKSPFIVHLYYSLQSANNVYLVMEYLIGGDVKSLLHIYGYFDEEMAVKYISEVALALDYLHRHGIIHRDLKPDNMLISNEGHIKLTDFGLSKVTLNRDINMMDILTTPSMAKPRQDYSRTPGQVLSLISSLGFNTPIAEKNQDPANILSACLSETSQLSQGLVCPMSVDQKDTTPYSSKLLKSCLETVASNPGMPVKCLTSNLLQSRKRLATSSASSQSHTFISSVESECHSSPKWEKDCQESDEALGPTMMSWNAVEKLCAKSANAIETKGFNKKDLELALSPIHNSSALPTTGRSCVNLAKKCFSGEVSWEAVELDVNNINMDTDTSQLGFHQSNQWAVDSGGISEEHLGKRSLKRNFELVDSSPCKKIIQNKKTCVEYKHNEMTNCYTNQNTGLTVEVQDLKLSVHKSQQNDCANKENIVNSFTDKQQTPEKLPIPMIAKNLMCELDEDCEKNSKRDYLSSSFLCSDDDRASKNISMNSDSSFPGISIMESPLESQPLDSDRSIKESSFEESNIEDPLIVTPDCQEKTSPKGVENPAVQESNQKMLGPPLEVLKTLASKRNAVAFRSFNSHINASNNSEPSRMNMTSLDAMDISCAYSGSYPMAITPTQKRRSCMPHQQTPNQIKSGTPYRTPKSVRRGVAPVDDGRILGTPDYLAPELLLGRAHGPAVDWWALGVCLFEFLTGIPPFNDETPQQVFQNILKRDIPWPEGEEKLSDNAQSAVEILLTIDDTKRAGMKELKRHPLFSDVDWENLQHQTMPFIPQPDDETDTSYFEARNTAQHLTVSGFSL
UniProt Q9BTT4: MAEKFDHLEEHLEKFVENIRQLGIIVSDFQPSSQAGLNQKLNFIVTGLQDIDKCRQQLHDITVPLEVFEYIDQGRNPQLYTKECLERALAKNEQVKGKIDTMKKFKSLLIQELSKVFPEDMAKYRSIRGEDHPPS
UniProt Q6P0Q8: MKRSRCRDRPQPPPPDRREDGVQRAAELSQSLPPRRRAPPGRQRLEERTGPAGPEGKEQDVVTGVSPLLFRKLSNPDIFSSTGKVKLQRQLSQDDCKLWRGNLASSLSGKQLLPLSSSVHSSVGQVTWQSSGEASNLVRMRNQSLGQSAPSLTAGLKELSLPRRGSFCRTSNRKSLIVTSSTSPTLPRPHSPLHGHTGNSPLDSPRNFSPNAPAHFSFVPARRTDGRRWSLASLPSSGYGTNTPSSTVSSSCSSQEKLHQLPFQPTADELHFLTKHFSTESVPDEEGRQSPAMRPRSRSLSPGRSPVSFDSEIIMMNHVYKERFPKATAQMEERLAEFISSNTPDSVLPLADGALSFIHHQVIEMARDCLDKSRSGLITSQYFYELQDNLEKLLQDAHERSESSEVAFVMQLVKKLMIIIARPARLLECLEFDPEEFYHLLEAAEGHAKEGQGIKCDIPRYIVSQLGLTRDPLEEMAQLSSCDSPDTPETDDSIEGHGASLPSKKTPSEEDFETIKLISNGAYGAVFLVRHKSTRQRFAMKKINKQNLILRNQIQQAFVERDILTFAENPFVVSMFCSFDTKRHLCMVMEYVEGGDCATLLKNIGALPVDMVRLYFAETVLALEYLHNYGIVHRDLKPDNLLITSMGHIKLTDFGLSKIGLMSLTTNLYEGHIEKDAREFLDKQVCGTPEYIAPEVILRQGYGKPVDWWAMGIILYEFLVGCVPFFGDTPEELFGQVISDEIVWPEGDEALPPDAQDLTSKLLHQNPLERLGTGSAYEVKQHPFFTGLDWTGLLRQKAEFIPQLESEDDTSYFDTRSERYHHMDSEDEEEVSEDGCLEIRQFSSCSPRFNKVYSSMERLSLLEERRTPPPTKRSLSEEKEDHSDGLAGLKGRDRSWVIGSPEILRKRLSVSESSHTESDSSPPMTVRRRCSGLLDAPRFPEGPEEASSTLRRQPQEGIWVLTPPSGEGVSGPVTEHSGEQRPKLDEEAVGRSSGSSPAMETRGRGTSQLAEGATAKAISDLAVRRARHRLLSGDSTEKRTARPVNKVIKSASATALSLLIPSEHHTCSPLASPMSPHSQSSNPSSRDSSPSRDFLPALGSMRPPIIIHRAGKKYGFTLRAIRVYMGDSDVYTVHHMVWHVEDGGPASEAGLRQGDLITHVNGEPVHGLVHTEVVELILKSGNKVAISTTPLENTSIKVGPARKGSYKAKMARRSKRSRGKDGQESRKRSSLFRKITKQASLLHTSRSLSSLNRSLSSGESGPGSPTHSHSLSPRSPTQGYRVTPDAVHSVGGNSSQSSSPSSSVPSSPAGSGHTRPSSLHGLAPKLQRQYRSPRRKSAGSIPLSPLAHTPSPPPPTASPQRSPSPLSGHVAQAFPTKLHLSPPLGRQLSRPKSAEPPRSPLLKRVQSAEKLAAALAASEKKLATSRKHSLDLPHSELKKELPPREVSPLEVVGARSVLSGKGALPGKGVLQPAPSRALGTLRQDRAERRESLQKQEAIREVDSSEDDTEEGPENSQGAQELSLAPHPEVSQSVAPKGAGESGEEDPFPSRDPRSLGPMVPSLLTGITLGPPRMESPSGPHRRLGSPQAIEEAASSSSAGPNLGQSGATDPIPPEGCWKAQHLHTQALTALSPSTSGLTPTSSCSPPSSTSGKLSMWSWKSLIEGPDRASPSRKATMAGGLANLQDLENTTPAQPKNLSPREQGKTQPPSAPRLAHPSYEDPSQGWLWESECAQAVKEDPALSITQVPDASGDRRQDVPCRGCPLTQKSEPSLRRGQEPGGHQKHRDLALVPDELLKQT
UniProt Q9H7H0: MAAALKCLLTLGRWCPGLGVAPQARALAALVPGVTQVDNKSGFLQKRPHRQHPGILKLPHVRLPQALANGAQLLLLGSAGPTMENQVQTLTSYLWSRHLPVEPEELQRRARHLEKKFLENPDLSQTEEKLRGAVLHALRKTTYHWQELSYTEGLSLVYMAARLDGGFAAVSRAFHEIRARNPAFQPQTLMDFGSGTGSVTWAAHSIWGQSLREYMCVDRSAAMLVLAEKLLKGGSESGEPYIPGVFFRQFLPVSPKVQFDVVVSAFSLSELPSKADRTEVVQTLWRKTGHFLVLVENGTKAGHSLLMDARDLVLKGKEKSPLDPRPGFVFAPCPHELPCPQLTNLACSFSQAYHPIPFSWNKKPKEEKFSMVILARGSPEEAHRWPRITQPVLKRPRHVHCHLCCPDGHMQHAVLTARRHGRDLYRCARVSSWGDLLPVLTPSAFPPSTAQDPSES
UniProt Q9NX70: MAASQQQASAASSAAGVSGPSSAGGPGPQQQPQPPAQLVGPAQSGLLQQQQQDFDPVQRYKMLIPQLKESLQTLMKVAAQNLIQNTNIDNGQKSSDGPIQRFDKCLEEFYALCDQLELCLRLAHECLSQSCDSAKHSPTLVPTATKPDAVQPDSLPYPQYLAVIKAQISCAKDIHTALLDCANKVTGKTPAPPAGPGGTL
UniProt Q9P086: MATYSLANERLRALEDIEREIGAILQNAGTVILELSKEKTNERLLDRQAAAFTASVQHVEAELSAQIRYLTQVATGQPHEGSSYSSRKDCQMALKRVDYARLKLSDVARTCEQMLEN
UniProt Q96KG7: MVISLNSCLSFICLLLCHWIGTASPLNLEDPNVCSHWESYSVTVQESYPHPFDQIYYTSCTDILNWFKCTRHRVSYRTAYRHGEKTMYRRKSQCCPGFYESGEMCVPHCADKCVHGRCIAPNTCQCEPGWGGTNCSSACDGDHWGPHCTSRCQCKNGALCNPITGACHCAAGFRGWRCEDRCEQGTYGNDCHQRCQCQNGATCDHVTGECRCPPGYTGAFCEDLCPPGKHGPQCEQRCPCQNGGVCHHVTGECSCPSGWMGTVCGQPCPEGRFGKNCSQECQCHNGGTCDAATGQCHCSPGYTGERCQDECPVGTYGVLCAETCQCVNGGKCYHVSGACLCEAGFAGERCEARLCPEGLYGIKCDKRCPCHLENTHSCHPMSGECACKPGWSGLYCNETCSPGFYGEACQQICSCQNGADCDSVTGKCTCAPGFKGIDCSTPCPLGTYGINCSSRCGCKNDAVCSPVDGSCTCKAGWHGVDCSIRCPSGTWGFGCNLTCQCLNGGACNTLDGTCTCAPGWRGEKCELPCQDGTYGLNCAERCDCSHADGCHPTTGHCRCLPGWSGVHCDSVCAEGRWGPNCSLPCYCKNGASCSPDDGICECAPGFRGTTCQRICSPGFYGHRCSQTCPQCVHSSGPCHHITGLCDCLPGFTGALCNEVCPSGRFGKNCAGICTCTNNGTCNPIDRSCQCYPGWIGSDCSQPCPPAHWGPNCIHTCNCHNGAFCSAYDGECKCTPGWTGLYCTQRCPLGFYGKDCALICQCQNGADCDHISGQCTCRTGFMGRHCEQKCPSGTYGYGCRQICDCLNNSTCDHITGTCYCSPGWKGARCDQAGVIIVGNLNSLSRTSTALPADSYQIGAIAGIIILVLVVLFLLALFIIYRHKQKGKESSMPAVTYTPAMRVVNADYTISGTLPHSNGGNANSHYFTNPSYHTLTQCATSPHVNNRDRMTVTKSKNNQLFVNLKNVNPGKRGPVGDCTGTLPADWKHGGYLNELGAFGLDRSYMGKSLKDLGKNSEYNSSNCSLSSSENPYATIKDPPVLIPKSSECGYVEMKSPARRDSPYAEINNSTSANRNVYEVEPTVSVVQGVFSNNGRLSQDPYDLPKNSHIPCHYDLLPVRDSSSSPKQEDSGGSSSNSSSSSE
UniProt Q6NUT3: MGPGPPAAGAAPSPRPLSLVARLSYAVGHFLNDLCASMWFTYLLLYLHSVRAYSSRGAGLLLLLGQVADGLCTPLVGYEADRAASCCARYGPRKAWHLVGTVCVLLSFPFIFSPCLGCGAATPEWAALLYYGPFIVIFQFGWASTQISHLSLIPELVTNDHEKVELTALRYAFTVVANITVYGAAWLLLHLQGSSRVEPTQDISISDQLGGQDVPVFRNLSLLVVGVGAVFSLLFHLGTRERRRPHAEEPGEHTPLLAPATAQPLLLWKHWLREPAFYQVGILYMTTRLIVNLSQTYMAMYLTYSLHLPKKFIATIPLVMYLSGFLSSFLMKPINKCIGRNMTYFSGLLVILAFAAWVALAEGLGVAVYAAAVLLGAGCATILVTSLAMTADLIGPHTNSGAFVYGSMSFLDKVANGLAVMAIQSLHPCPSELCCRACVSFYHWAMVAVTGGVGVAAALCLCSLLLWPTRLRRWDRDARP
UniProt Q9Y3C7: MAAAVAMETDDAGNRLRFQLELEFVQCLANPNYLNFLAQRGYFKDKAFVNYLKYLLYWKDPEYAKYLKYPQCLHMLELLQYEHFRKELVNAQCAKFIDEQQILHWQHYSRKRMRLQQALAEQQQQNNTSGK
UniProt O43462: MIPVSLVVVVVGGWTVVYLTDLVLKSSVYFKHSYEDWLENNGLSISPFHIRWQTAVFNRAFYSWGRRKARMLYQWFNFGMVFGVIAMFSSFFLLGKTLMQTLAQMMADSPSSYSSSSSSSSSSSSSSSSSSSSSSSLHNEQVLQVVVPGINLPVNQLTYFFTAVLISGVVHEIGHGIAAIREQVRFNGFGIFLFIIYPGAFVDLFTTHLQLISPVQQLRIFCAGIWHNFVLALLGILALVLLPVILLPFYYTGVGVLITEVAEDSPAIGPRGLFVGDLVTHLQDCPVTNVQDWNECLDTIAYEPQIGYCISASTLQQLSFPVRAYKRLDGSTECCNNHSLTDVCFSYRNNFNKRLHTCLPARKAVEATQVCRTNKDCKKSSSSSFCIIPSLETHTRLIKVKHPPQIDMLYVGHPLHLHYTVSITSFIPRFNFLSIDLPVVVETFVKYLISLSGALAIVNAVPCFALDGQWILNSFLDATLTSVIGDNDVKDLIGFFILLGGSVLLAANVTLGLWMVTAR
UniProt Q9NVC6: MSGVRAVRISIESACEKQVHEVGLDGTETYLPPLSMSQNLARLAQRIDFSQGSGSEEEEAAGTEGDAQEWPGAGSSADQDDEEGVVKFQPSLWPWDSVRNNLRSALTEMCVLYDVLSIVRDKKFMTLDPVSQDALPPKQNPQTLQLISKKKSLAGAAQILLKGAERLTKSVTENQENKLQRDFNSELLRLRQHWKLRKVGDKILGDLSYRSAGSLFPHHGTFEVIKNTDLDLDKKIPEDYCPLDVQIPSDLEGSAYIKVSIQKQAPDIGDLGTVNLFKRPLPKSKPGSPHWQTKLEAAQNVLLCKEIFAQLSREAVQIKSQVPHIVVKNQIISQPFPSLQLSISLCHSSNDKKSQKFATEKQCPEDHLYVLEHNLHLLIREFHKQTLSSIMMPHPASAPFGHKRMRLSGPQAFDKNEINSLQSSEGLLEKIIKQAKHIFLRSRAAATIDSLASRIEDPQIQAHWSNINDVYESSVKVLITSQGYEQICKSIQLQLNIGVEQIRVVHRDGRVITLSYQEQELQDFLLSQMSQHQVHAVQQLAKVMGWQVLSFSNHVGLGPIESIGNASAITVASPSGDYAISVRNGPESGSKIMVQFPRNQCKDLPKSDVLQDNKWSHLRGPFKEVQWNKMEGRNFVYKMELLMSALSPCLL

Assays:
Assay in all cases: log2 fold change, soluble protein after heating vs DMSO (PISA); higher = thermal stabilisation; K562 cells, 10 uM, 30 min; active = over 0.2 and 3.5 SD of the protein, either way, in both replicates (recomputed)
bafetinib = compound: Cc1ccc(NC(=O)c2ccc(CN3CC[C@H](N(C)C)C3)c(C(F)(F)F)c2)cc1Nc1nccc(-c2cncnc2)n1 [bafetinib]
Summary of the method: (§1)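 Quantification of soluble protein used TMTpro 16plex LC-MS/MS, with channel sums equalised. Samples were the supernatant after 21,000xg for 90 min of pooled aliquots from K562 cells (2×10^6 cells/mL) treated with 10 μM compound for 30 min, heated for 3 min over 48°C-58°C, and extracted in PBS with 0.5% NP-40 at 4°C. Values, from duplicates, describe thermal stability against control samples on a log2 fold-change scale.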

nilotinib = compound: Cc1cn(-c2cc(NC(=O)c3ccc(C)c(Nc4nccc(-c5cccnc5)n4)c3)cc(C(F)(F)F)c2)cn1 [nilotinib]
Summary of the method: as §1

[1] = compound: Cc1nc(Nc2n[nH]c3c2CN(C(=O)N[C@H](CN(C)C)c2ccccc2)C3(C)C)c2sccc2n1
Summary of the method: as §1

dasatinib = compound: Cc1nc(Nc2ncc(C(=O)Nc3c(C)cccc3Cl)s2)cc(N2CCN(CCO)CC2)n1 [dasatinib]
Summary of the method: as §1

[2] = compound: Cc1ncc(-c2ccnc(Nc3ccc(S(C)(=O)=O)cc3)n2)n1C(C)C
Summary of the method: as §1

[3] = compound: Cn1cc(-c2ccc3c(c2)CCN3C(=O)Cc2cccc(C(F)(F)F)c2)c2c(N)ncnc21
Summary of the method: as §1

[4] = compound: Cn1cc(-c2ccc3nnc(C(F)(F)c4ccc5ncccc5c4)n3n2)cn1
Summary of the method: as §1

mubritinib = compound: FC(F)(F)c1ccc(/C=C/c2nc(COc3ccc(CCCCn4ccnn4)cc3)co2)cc1 [mubritinib]
Summary of the method: as §1

[5] = compound: NC(=O)Nc1cc(-c2cccc(F)c2)sc1C(=O)N[C@H]1CCCNC1
Summary of the method: as §1

[6] = compound: NC(=O)c1cnc(N[C@@H]2CCCC[C@@H]2N)nc1Nc1cccc(-n2nccn2)c1
Summary of the method: as §1

[7] = compound: NC1(c2ccc(-c3nc4ccn5c(=O)[nH]nc5c4cc3-c3ccccc3)cc2)CCC1
Summary of the method: as §1

[8] = compound: NCC(=O)Nc1ccc(-n2nc(C(F)(F)F)cc2-c2ccc3c(ccc4ccccc43)c2)cc1
Summary of the method: as §1

entinostat = compound: Nc1ccccc1NC(=O)c1ccc(CNC(=O)OCc2cccnc2)cc1 [entinostat]
Summary of the method: as §1

citarinostat = compound: O=C(CCCCCCNC(=O)c1cnc(N(c2ccccc2)c2ccccc2Cl)nc1)NO [citarinostat]
Summary of the method: as §1

silmitasertib = compound: O=C(O)c1ccc2c(c1)nc(Nc1cccc(Cl)c1)c1ccncc12 [silmitasertib]
Summary of the method: as §1

[9] = compound: O=C1NC(=O)C(c2cnc3ccccn23)=C1c1cn2c3c(cc(F)cc13)CN(C(=O)N1CCCCC1)CC2
Summary of the method: as §1

[10] = compound: c1cc(OCCN2CCCCC2)cc(-c2n[nH]c3ccc(-c4nnc[nH]4)cc23)c1
Summary of the method: as §1

tipifarnib = compound: Cn1cncc1[C@@](N)(c1ccc(Cl)cc1)c1ccc2c(c1)c(-c1cccc(Cl)c1)cc(=O)n2C [tipifarnib]
Summary of the method: as §1

[11] = compound: Cc1cccc(CC(=O)N2CCc3c2ccc(-c2cn(C)c4ncnc(N)c24)c3F)n1
Summary of the method: as §1

vorinostat = compound: O=C(CCCCCCC(=O)Nc1ccccc1)NO [vorinostat]
Summary of the method: as §1

Row | Target | log2 fold change (bafetinib) | log2 fold change (nilotinib) | log2 fold change [1] | log2 fold change (dasatinib) | log2 fold change [2] | log2 fold change [3] | log2 fold change [4] | log2 fold change (mubritinib) | log2 fold change [5] | log2 fold change [6] | log2 fold change [7] | log2 fold change [8] | log2 fold change (entinostat) | log2 fold change (citarinostat) | log2 fold change (silmitasertib) | log2 fold change [9] | log2 fold change [10] | log2 fold change (tipifarnib) | log2 fold change [11] | log2 fold change (vorinostat)
1 | MASTL (UniProt Q96GX5) | inactive: 0.143 | inactive: 0.014 | inactive: 0.002 | inactive: -0.105 | inactive: 0.021 | inactive: -0.052 | inactive: 0.276 | inactive: -0.093 | inactive: 0.123 | inactive: -0.018 | inactive: 0.144 | inactive: -0.004 | inactive: 0.053 | inactive: -0.018 | inactive: 0.123 | inactive: 0.039 | inactive: 0.002 |  |  | 
2 | MEX3B (UniProt Q6ZN04) | inactive: -0.057 | inactive: -0.042 | inactive: 0 |  | inactive: -0.291 |  | inactive: 0.02 |  |  |  |  |  |  |  |  |  |  | inactive: 0.133 |  | 
3 | MED10 (UniProt Q9BTT4) |  | inactive: 0.136 | inactive: 0.103 | inactive: 0.096 | inactive: -0.058 | inactive: 0.029 | inactive: 0.051 | inactive: 0.005 | inactive: -0.089 | inactive: 0.05 | inactive: 0.102 | inactive: -0.026 | inactive: 0.098 | inactive: -0.003 | inactive: 0.043 | inactive: 0.021 | inactive: -0.112 | inactive: 0.156 | inactive: 0.013 | inactive: -0.073
4 | MERTK (UniProt Q12866) | inactive: -0.145 | inactive: -0.021 | inactive: -0.053 | inactive: 0.057 | inactive: -0.054 | inactive: -0.004 |  | inactive: 0.156 | inactive: -0.123 | inactive: 0.012 | inactive: -0.167 | inactive: -0.011 | inactive: 0.039 | inactive: 0.067 | inactive: 0.037 | inactive: -0.204 | inactive: 0.018 | inactive: 0.039 |  | 
5 | MED13L (UniProt Q71F56) |  |  |  |  |  | inactive: 0.046 |  |  |  |  |  | inactive: 0.056 |  |  |  | inactive: -0.036 |  | inactive: 0.182 |  | 
6 | MEF2A (UniProt Q02078) |  | inactive: 0.158 | inactive: 0.006 |  | inactive: 0.031 |  |  |  | inactive: -0.2 |  |  |  | inactive: -0.215 | inactive: 0.02 |  | inactive: 0.036 | inactive: -0.174 | inactive: -0.061 |  | 
7 | MAST2 (UniProt Q6P0Q8) |  |  |  |  |  |  | inactive: -0.073 |  |  |  |  |  |  |  |  |  |  |  |  | 
8 | METTL17 isoform 3 (UniProt Q9H7H0) |  |  |  |  |  | inactive: -0.232 | inactive: 0.084 | inactive: 0.153 | inactive: 0.137 | inactive: 0.026 | inactive: -0.107 |  | inactive: -0.065 | inactive: 0.1 | inactive: 0.037 |  | inactive: -0.101 | inactive: -0.04 |  | 
9 | MATK isoform 2 (UniProt P42679) |  | inactive: 0.027 | inactive: 0.007 | inactive: 0.051 | inactive: 0.022 | inactive: -0.184 |  |  |  |  |  | inactive: -0.068 |  |  |  |  |  |  |  | 
10 | MED21 (UniProt Q13503) |  | inactive: 0.11 | inactive: 0.113 |  | inactive: -0.274 | inactive: 0.159 | inactive: 0.216 | inactive: -0.047 |  | inactive: -0.098 | inactive: 0.034 |  |  | inactive: -0.014 | inactive: 0.021 |  | inactive: -0.021 | inactive: 0.155 | inactive: -0.286 | inactive: -0.2
11 | MED29 (UniProt Q9NX70) |  | inactive: 0.017 | inactive: 0.027 | inactive: 0.226 | inactive: -0.14 |  |  | inactive: -0.136 |  | inactive: 0.05 | inactive: 0.029 |  |  |  | inactive: 0.133 |  |  | inactive: 0.169 |  | 
12 | MED11 (UniProt Q9P086) |  |  |  |  |  |  |  | inactive: -0.346 |  |  | inactive: 0.116 |  |  |  | inactive: -0.084 |  |  |  |  | 
13 | MEGF10 (UniProt Q96KG7) |  |  |  |  |  |  |  |  |  |  |  |  |  |  |  |  |  | inactive: 0.269 |  | 
14 | METAP1D (UniProt Q6UB28) | inactive: -0.089 | inactive: -0.114 | inactive: 0.036 | inactive: 0.007 | inactive: 0.079 | inactive: -0.034 | inactive: -0.071 | inactive: 0.028 | inactive: 0.061 | inactive: 0.252 | inactive: -0.033 | inactive: 0.073 | inactive: -0.071 | inactive: 0.098 | inactive: 0.064 | inactive: -0.099 | inactive: -0.04 | inactive: -0.023 |  | 
15 | MFSD12 isoform 3 (UniProt Q6NUT3) |  |  |  | inactive: -0.093 |  | inactive: -0.124 |  |  | inactive: 0.073 | inactive: -0.159 |  |  | inactive: -0.067 | inactive: 0.1 |  |  | inactive: -0.162 |  | inactive: 0.047 | inactive: 0.11
16 | MED31 (UniProt Q9Y3C7) |  | inactive: 0.041 | inactive: 0.04 |  | inactive: -0.161 |  | inactive: 0.05 | inactive: 0.014 |  |  | inactive: -0.021 | inactive: 0.083 |  | inactive: 0.049 | inactive: 0.03 |  | inactive: -0.169 |  |  | 
17 | MBTPS2 (UniProt O43462) |  | inactive: 0.05 | inactive: 0.086 | inactive: -0.1 | inactive: -0.103 | inactive: 0.032 | inactive: 0.144 |  |  |  |  | inactive: -0.166 |  |  |  | inactive: -0.246 |  | inactive: -0.085 | inactive: -0.084 | inactive: -0.035
18 | MED17 (UniProt Q9NVC6) |  | inactive: 0.069 | inactive: 0.079 | inactive: -0.152 | inactive: -0.108 | inactive: -0.033 | inactive: -0.069 | inactive: 0.015 | inactive: 0.068 | active: -0.33 | inactive: 0.049 | inactive: -0.034 | inactive: -0.128 | inactive: 0.014 | inactive: 0.074 | inactive: 0.112 | inactive: 0.126 | inactive: 0.077 | inactive: -0.033 | inactive: 0.045

Some values from the results shown:
Under log2 fold change (silmitasertib), MED11 (UniProt Q9P086) has inactive: -0.084
Under log2 fold change (dasatinib), MED29 (UniProt Q9NX70) has inactive: 0.226
